In publication PMC12056667 (Chemical Science, 2025):

Test system: Tet(X7)
Experiment: Fluorescence polarisation binding assay of probes with purified TDase
Description: NADPH was not included to prevent turnover of the probe to the hydroxylated product, which would likely have a lower binding affinity than the initial probes. Screens were conducted in pH 7.0 buffer with addition of 0.01% Triton-X100 detergent in non-binding plates to minimise adsorption to the plate wells.[45]
Aliquots of TDases were thawed and serially diluted with the assay buffer (100 mM Tris, pH 7.0 with 0.01% Triton X-100) in a V-bottom 96-well plate (Greiner Bio-One). 12.5 μL of each concentration of enzyme was transferred in quadruplicate to a 384-well black, non-binding microtiter plate (Greiner Bio-One). Aliquots of 2 mM stock of fluorescent probes 5 and 6 in DMSO were thawed and diluted to 50 nM in the assay buffer with 2 μM FAD and 10 mM MgCl2. 12.5 μL of this solution was added to wells containing enzyme. A negative control of 12.5 μL of the probe solution with 12.5 μL of the assay buffer was included on each plate. The plate was briefly centrifuged (1000 rpm), then incubated at ambient temperature for 30 min before measuring the FP response using a PHERAstar FS microplate reader (BMG Labtech) equipped with an FP optic module (excitation = 540 ± 20 nm, Emission = 590 ± 20 nm, 200 flashes per well). ΔmP values were calculated by subtracting the average mP of the negative controls from the mP measured for each well. […]

SMILES: CN(C)c1ccc2c(-c3ccc(C(=O)NCC(=O)Nc4cc(N(C)C)c5c(c4O)C(=O)C4=C(O)[C@]6(O)C(=O)C(C(N)=O)=C(O)[C@H](N(C)C)[C@@H]6C[C@@H]4C5)cc3C(=O)[O-])c3ccc(=[N+](C)C)cc-3oc2c1 [Probe 5]
- difference in Kd between Tet(X3) and Tet(X7): ~5 fold

SMILES: CN(C)c1ccc2c(-c3ccc(NC(=S)NCC(=O)Nc4cc(N(C)C)c5c(c4O)C(=O)C4=C(O)[C@]6(O)C(=O)C(C(N)=O)=C(O)C(N(C)C)[C@@H]6C[C@@H]4C5)cc3C(=O)[O-])c3ccc(=[N+](C)C)cc-3oc2c1 (some centres unmarked) [Probe 6, TRITC-glycyl-minocycline]
- difference in Kd between Tet(X3) and Tet(X7): ~5 fold
